Among all 320,000 compounds or so, about 2,100 (0.66%) were called active. Inconclusive means that the source gave no clear call. Such entries were picked first, then a sample of the others. Calls come from the whole dose curve; as a rule, active = well fitted inhibition curve with a large enough effect in the signal ratio, with a control signal flat (not every such curve was filed as active); inconclusive = small, poorly fitted or top-dose-only effect, or effect the other way, or a change in a side signal; inactive = flat fitted curve, though single readings scatter; the % refers to the signal ratio. Potencies beside an inconclusive call are fits to weak or partial responses and may not hold up.
experiment: qHTS Assay for Lipid Storage Modulators in Drosophila S3 Cells; settings: BODIPY lipid droplet fluorescence, 18-24 h, cells fed with added oleic acid; lipid storage change, negative = inhibition: at 46.1 µM (top of the series) unless noted
How it was run: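 Laser-scanning cytometry quantifies lipid droplet accumulation (500–530 nm total intensity; droplet/cell object ratio) in oleic acid-fed (400 uM added) Drosophila S3 cells treated with a concentration series. 20 uM Triacsin C defined 100% inhibition.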
% is set by controls: 0 for no effect and ±100 for the full control effect; potency is the fitted concentration of half-maximal effect.

SMILES | lipid storage change, negative = inhibition | Potency
COc1ccc(CCN2C(=O)c3cccnc3C2=O)cc1OC | inconclusive: -4.64% | 
COC(=O)CCC(=O)N1CN2CN(C(=O)CCC(=O)OC)CC([N+](=O)[O-])(C2)C1 | inconclusive: 0.808% | 
CCc1nc2sc3c(c2c(=O)o1)CCCC3 | inconclusive: -98.6% | 
COc1ccccc1NC(=O)N1CCN(c2ccnc3cc(Cl)ccc23)CC1 |  | inconclusive: 20.6 µM [falling, single point]
CCC1CCCCN1C(=O)Cn1c(=O)n(CCCC(=O)NCc2ccco2)c(=O)c2sccc21 (configuration not stated) | inconclusive: -75.8% | 
O=C(Nc1ccc(N2CCN(C(=O)c3ccc(Cl)cc3)CC2)cc1)c1ccc(Br)o1 |  | inconclusive: 13 µM [falling, partial curve, poor fit]
Cc1nc(NC(=O)/C=C/c2ccc(F)cc2)sc1C(=O)N(C)C | inconclusive: 26% | 
Cc1cc(Br)ccc1NC(=O)CN1C(=O)C2CC=CCC2C1=O (configuration not stated) | inconclusive: 7.06% | 
CCn1ncc([C@@H]2C[C@H]3CN(Cc4cccc(Cl)c4)C(=O)[C@]34CCCN24)c1C | inconclusive: 2.09% | 
COc1cc(/C=C2\SC(=S)N(CCC(=O)Nc3ccccc3)C2=O)cc(OC)c1OC | inactive: -5.12% [at 9.22 µM] | 
CC1CN(C(=O)CN2C(=O)c3ccccc3S2(=O)=O)CC(C)O1 (configuration not stated) | inconclusive: 14.6% | 
CN1C[C@H](C(=O)N[C@]2(C)O[C@@]3(O)[C@@H]4CCCN4C(=O)[C@H](Cc4ccccc4)N3C2=O)CC2c3cccc4[nH]cc(c34)C[C@H]21 (some centres not stated) | inconclusive: 13.3% | 
C/C(=N\NC(=O)c1ccc(-c2ccccc2)cc1)c1cccc(N)c1 |  | inconclusive: 0.146 µM [falling, full curve, poor fit]
Cc1ccccc1CNc1nnnn1C |  | inconclusive: 0.0731 µM [activator, full curve, poor fit]
O=C(O)c1ccc(NS(=O)(=O)c2ccc(NC(=O)c3ccccc3Cl)cc2)cc1 |  | inconclusive: 0.58 µM [activator, single point]
CCOC(=O)c1cc(C(=O)OCC)cc(-n2c(C)cc(C(=O)CN3CCOCC3)c2C)c1 | inconclusive: 29.7% | 
O=C(CSc1nnc(Cc2cc(=O)[nH]c(=O)[nH]2)n1-c1ccccc1)N1CCCC1 | inconclusive: -19.2% | 
COC(=O)CSc1nnc2n1C(C)(C)Cc1ccccc1-2 | inconclusive: -33% | 
O=S(=O)(c1cccs1)N1CCN(C/C=C/c2ccccc2)CC1 |  | inconclusive: 0.13 µM [falling, full curve, poor fit]
C=CCSC1=N/C(=C\c2ccc(C(=O)O)cc2)C(=O)S1 | inconclusive: -38.5% | 
NC(=O)C1CC(=O)N(c2ccc(OCC(=O)Nc3ccccc3F)cc2)C1 (configuration not stated) | inconclusive: 42.8% | 
Cc1[nH]c2ccccc2c1/C=N/NC(=O)c1cc(-c2ccccc2)n[nH]1 |  | inconclusive: 29.1 µM [falling, single point]
O=C(Cn1c(CC(=O)N2CCOCC2)nc2ccccc21)Nc1ccc2c(c1)OC(F)(F)O2 | inconclusive: -0.364% [cytotoxic] | 
COC(=O)C(C(=O)OC)=C(/C=C/N(C)C)N(C)C |  | inconclusive: 0.0058 µM [falling, full curve, poor fit]

SMILES | lipid storage change, negative = inhibition | Potency
COc1cc(C2NC(=O)N(C)C(C)=C2C(=O)OCc2ccccc2)cc(Br)c1O (configuration not stated) | inconclusive: 13.4% | 
CC1CCN(c2nnc(-c3ccccc3)c3ccccc23)CC1 | inconclusive: 80.3% | 
O=C(O)CC(C(=O)NC1CCCCC1)C1CCCO1 (configuration not stated) | inconclusive: -4.43% | 
COc1ccc2[nH]c(=O)c(CN(Cc3ccc4c(c3)OCO4)C(C)=O)cc2c1 |  | inconclusive: 2.06 µM [activator, partial curve]
Cc1c(NC(=O)c2ccc(N(C)S(C)(=O)=O)cc2)c(=O)n(-c2ccccc2)n1C |  | inconclusive: 2.59 µM [falling, full curve, poor fit]
O=C(c1ccc(-n2cncn2)c([N+](=O)[O-])c1)N1CCN(S(=O)(=O)c2ccccc2Br)CC1 | inconclusive: -34.1% | 
O=C(NCCOc1ccccc1)c1cncc(Br)c1 |  | inconclusive: 4.61 µM [activator, full curve]
CCOc1ccc(OCCC(=O)OCC(=O)NC2CCCCC2)cc1 |  | inconclusive: 29.1 µM [activator, single point]
COc1cc(SC#N)ccc1N=Cc1c(C)[nH]n(-c2ccc(C)cc2)c1=O |  | inconclusive: 16.4 µM [cytotoxic, partial curve]
COC(=O)c1ccc(C23CC4(C2)[C@H](CN(C)[C@@H]4c2ccccc2)C3c2ccc(C(F)(F)F)cc2)cc1 (some centres not stated) | inconclusive: 3.71% | 
Cc1ccc(N2C(=O)C3C(c4ccccc4)N4CCCN4C3(C)C2=O)cc1 (configuration not stated) | inconclusive: 8.61% | 
CCOC(=O)C1CCCN(C(=O)c2cccc(S(=O)(=O)N(C)c3c(C)n(C)n(-c4ccccc4)c3=O)c2)C1 (configuration not stated) |  | inconclusive: 2.59 µM [falling, single point]
Cn1cc(Br)c(C(=O)NC(=S)N2CCN(c3ccccn3)CC2)n1 | inconclusive: 30.2% | 
C=CCSC1=Nc2cc(OC)c(OC)cc2C2=NC(=O)CN12 | inconclusive: 35.5% | 
COc1ccc(/C=C(/Sc2nnc(-c3ccc(Cl)cc3)o2)C(=O)O)cc1 | inconclusive: 50.3% | 
COc1ccc(OC)c(NC(=O)COC(=O)c2ccc(-n3cnnn3)cc2)c1 |  | inconclusive: 0.58 µM [activator, single point]
CN1CCN(c2ccc(NC(=O)COc3cccc4ccccc34)cc2)CC1 |  | inconclusive: 6.51 µM [falling, single point]
CCOC(=O)C1CCCN(C(=O)CCn2nc(-c3ccccc3)ccc2=O)C1 (configuration not stated) |  | inconclusive: 3.66 µM [activator, partial curve]
Cc1cccc(NC(=O)c2cccs2)n1 |  | inconclusive: 18.4 µM [activator, single point]
Cc1c(Cl)cccc1NC(=O)CNC(=O)Cc1c[nH]c2ccccc12 | inconclusive: 17.1% | 
Fc1ccc(-c2nc3ccccc3c3nc4ccccc4n23)cc1 |  | inconclusive: 18.4 µM [activator, partial curve, poor fit]
CN(C)/C(CN1CCCCC1)=C1\N=C(c2ccccc2)OC1=O |  | inconclusive: 29.1 µM [activator, single point]
Cc1c(O)ccc2c(CN3CCOCC3)cc(=O)oc12 | inconclusive: 15% | 
Cn1c(SCC(=O)N2CCCc3ccccc32)nnc1-c1ccco1 | inconclusive: -17% | 

Taken from above.
For Potency, `CN(C)/C(CN1CCCCC1)=C1\N=C(c2ccccc2)OC1=O` shows inconclusive: 29.1 µM [activator, single point]
For lipid storage change, negative = inhibition, `Cn1c(SCC(=O)N2CCCc3ccccc32)nnc1-c1ccco1` shows inconclusive: -17%
For lipid storage change, negative = inhibition, `Cn1cc(Br)c(C(=O)NC(=S)N2CCN(c3ccccn3)CC2)n1` shows inconclusive: 30.2%
For lipid storage change, negative = inhibition, `CC1CCN(c2nnc(-c3ccccc3)c3ccccc23)CC1` shows inconclusive: 80.3%
For Potency, `CN1CCN(c2ccc(NC(=O)COc3cccc4ccccc34)cc2)CC1` shows inconclusive: 6.51 µM [falling, single point]
For lipid storage change, negative = inhibition, `Cc1c(O)ccc2c(CN3CCOCC3)cc(=O)oc12` shows inconclusive: 15%

(further entries)

SMILES | lipid storage change, negative = inhibition | Potency
COCCNc1ncnc2c1nc1n2CCCC1 |  | inconclusive: 29.1 µM [activator, single point]
COc1cc(-c2nnc(SCC(=O)OC3CCCCC3)o2)cc(OC)c1OC | inconclusive: -104% | 
O=S(=O)(c1cccs1)N1CCN(c2ccc(F)cc2)CC1 | inconclusive: -68.6% | 
C/C=C/c1ccc(OCCCNC)c(OC)c1 | inconclusive: -35.3% | 
CC(NC(=O)CCNC(=O)c1ccc(Br)cc1)c1ccc(S(N)(=O)=O)cc1 (configuration not stated) | inconclusive | 
CC(c1ccon1)N(C)Cc1cn(C)nc1-c1ccc2c(c1)OCCO2 (configuration not stated) | inconclusive: -4.58% | 
O=C(NCc1ccc2c(c1)OCO2)C1CCCN(S(=O)(=O)c2cccnc2)C1 (configuration not stated) | inactive: 10.6% | 
CC(=O)c1ccc(S(=O)(=O)N2CCN(C(=O)c3ccc(-n4cncn4)c([N+](=O)[O-])c3)CC2)cc1 |  | inconclusive: 0.259 µM [falling, partial curve, poor fit]
COc1ccc(NC(=O)COC(=O)C2CC(=O)N(CCc3ccc(OC)c(OC)c3)C2)cc1Cl (configuration not stated) |  | inconclusive: 0.146 µM [activator, full curve, poor fit]
O=C(O)CCN(Cc1ccccc1)S(=O)(=O)c1c(Cl)cccc1Cl | inconclusive: -2.5% | 
O=C(O)c1cc(-c2ccccc2)n(-c2ccc(Cl)cc2)n1 |  | inconclusive: 29.1 µM [cytotoxic, single point]
CCOCCCn1c(SCC(=O)Nc2cccc(OC)c2)nc2ccccc2c1=O | inconclusive: -88.8% | 
O=[N+]([O-])c1ccc(Oc2ccc(S(=O)(=O)N3CCOCC3)cc2)cc1 |  | inconclusive: 25.9 µM [falling, single point]
CCN(CC)C(=O)c1ccc(COc2ccc(Cl)c(C)c2)o1 | inconclusive: -63.3% | 
O=C(CN1CCN(CC(=O)Nc2ccccn2)CC1)Nc1ccccn1 |  | active: 29.1 µM
CC(=O)c1cn(CC(=O)Nc2ccccc2C(F)(F)F)c2ccccc12 |  | inconclusive: 29.1 µM [activator, single point]
Cc1c(N2C(=O)c3ccc(Br)cc3C2=O)c(=O)n(-c2ccccc2)n1C | inconclusive: -7.11% | 
CCOc1ccc(NS(=O)(=O)c2ccc(C(=O)N3CCCC(C)C3)cc2)cc1 (configuration not stated) | inactive: 18.3% | 
Cc1ccc(/C=C/C(=O)O)cc1S(=O)(=O)NC1CCS(=O)(=O)C1 (configuration not stated) | inconclusive: -19.2% | 
Cc1nnc(SCC2=C(C(=O)O)N3C(=O)C(NC(=O)Cn4nc(C(F)F)c(Cl)c4C)C3SC2)s1 (configuration not stated) | inconclusive: -0.798% | 
O=C(Nc1cccc(S(=O)(=O)Nc2ccccc2Cl)c1)c1ccc(Cl)nc1 | inconclusive: -10% | 
Cc1nc(NC(C)c2ccccc2)sc1C(=O)Nc1ccccc1 (configuration not stated) |  | inconclusive: 0.0046 µM [falling, full curve, poor fit]
NC(=O)NC(CC(=O)Nc1cccnc1)c1cccc(Br)c1 (configuration not stated) | inconclusive: -90.7% | 
COc1ccc(-c2cc(=O)oc3c(C)c(OCc4nn[nH]n4)ccc23)cc1 | inconclusive: 45.6% | 
